Reference: article PMC7850971
Results are given in words; binding and its absence hold for the method and conditions named. Binding seen in cells or lysates may run through a third protein. Some entries that bind do so weakly or less than the wild type.

Amino acid sequences for entries named in this document (tags omitted).
UniProt Q14457: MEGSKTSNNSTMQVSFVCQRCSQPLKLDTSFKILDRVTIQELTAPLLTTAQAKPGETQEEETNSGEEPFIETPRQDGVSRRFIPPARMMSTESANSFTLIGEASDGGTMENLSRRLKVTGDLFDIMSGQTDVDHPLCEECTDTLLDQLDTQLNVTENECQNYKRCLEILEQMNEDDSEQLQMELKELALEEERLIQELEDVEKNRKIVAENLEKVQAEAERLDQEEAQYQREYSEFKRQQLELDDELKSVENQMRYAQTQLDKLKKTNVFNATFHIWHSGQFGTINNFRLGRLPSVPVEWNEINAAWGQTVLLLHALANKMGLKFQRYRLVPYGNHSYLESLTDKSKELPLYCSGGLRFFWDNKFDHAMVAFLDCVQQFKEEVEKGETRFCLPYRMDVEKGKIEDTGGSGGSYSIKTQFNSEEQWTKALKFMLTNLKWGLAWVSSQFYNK
UniProt Q99570: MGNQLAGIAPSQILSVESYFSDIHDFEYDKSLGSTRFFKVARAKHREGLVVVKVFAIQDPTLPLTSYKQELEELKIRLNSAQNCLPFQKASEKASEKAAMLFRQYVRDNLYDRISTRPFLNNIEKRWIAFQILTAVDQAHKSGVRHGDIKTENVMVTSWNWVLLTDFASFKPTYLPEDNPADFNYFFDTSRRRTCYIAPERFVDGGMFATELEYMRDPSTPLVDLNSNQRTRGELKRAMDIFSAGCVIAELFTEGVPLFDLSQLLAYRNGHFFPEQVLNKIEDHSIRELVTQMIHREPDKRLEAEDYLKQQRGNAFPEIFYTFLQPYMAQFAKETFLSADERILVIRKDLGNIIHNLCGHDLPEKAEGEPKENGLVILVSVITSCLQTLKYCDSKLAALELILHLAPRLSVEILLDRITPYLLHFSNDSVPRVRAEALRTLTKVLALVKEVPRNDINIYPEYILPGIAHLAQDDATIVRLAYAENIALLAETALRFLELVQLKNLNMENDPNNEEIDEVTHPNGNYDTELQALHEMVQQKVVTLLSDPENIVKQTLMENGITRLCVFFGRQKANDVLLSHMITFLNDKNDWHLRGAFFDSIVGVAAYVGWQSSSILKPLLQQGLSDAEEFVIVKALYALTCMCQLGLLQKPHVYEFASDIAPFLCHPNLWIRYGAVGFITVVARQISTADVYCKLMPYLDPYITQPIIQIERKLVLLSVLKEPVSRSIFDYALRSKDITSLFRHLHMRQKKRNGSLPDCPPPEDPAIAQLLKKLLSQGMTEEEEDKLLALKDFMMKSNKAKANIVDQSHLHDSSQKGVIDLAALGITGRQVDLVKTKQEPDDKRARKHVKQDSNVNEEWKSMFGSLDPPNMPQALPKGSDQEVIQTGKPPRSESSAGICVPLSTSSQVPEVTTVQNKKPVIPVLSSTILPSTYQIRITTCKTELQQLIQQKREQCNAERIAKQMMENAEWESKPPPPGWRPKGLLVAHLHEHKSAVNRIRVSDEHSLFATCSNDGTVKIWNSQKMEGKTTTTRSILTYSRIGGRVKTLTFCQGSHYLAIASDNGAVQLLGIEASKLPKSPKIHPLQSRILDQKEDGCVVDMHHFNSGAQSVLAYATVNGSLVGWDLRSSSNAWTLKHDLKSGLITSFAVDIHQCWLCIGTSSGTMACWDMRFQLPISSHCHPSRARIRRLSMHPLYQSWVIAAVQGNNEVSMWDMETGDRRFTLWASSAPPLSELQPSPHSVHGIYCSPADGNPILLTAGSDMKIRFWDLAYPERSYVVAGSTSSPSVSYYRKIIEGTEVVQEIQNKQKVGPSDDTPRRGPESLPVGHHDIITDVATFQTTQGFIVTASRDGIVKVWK
UniProt Q8NEB9: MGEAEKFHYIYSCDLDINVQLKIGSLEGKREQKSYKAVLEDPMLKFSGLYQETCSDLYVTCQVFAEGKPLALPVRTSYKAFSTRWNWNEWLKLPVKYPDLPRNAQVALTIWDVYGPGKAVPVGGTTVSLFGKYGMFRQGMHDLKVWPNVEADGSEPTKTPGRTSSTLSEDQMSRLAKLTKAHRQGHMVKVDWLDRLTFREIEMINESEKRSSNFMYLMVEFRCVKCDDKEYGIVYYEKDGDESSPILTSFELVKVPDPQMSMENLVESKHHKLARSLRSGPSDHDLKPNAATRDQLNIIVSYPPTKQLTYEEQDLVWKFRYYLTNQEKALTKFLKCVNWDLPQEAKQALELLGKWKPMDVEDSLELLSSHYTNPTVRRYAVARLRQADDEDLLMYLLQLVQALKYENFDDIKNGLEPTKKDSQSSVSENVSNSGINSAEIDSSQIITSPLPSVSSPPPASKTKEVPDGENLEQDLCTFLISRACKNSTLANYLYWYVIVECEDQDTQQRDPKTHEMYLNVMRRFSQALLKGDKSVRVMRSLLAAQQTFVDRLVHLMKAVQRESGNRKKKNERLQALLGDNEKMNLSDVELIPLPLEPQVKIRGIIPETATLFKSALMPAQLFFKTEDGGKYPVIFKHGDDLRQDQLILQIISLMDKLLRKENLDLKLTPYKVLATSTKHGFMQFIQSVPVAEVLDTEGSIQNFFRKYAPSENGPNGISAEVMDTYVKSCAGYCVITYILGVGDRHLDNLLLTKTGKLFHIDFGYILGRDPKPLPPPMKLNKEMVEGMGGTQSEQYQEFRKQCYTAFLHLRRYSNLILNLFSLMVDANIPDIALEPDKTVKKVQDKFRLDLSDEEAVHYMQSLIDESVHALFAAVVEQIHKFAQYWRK
UniProt Q562E7: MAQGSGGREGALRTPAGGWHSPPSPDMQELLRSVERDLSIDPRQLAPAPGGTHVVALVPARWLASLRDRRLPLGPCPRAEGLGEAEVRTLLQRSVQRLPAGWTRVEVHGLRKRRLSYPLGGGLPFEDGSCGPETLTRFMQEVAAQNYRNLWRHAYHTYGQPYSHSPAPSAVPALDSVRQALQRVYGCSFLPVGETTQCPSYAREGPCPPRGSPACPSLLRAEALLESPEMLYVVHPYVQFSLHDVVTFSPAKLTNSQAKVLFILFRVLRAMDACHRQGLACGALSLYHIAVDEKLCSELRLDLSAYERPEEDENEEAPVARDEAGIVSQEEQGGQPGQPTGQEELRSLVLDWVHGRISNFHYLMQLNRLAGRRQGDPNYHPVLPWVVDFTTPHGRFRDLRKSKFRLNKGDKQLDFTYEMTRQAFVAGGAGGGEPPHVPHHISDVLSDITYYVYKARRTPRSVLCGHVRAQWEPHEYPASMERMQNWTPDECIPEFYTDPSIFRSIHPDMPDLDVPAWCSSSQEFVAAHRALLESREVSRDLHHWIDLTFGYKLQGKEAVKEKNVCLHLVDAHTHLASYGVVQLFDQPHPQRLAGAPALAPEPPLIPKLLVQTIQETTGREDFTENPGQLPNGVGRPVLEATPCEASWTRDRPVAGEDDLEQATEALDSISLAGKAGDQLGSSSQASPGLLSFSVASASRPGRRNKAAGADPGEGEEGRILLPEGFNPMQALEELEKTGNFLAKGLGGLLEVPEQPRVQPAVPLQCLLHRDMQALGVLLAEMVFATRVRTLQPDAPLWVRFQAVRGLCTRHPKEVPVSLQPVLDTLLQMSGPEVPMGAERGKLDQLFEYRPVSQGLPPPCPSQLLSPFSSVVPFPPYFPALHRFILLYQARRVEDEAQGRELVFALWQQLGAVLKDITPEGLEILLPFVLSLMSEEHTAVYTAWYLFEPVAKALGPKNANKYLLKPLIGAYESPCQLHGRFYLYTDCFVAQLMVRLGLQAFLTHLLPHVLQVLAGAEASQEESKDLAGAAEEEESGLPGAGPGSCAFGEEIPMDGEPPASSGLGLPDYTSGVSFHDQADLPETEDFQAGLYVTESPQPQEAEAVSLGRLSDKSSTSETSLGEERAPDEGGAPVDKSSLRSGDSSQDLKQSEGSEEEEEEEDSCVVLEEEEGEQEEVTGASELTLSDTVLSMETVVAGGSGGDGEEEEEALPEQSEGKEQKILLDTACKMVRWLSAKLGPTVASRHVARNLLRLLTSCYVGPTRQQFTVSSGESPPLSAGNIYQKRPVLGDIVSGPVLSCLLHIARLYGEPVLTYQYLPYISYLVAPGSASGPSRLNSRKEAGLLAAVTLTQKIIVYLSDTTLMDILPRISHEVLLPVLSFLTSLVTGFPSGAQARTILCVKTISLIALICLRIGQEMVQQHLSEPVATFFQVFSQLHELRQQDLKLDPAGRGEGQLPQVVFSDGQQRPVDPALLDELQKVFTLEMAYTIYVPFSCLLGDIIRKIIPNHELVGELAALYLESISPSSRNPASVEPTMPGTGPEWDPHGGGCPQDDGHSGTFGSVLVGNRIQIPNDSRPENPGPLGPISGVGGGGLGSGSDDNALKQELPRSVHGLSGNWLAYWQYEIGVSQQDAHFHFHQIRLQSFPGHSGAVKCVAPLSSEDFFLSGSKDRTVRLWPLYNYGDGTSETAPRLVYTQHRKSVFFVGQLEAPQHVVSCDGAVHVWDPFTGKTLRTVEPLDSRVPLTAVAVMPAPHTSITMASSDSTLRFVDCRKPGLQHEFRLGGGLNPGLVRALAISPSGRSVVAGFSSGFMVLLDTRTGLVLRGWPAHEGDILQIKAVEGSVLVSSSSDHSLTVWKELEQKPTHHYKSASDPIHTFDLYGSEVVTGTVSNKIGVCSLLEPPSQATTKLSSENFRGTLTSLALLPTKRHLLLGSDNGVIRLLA

B1: SARA (SMAD anchor for receptor activation) (protein, UniProt O95405 1-1425)
chain: MENYFQAEAYNLDKVLDEFEQNEDETVSSTLLDTKWNKILDPPSHRLSFNPTLASVNESAVSNESQPQLKVFSLAHSAPLTTEEEDHCANGQDCNLNPEIATMWIDENAVAEDQLIKRNYSWDDQCSAVEVGEKKCGNLACLPDEKNVLVVAVMHNCDKRTLQNDLQDCNNYNSQSLMDAFSCSLDNENRQTDQFSFSINESTEKDMNSEKQMDPLNRPKTEGRSVNHLCPTSSDSLASVCSPSQLKDDGSIGRDPSMSAITSLTVDSVISSQGTDGCPAVKKQENYIPDEDLTGKISSPRTDLGSPNSFSHMSEGILMKKEPAEESTTEESLRSGLPLLLKPDMPNGSGRNNDCERCSDCLVPNEVRADENEGYEHEETLGTTEFLNMTEHFSESQDMTNWKLTKLNEMNDSQVNEEKEKFLQISQPEDTNGDSGGQCVGLADAGLDLKGTCISESEECDFSTVIDTPAANYLSNGCDSYGMQDPGVSFVPKTLPSKEDSVTEEKEIEESKSECYSNIYEQRGNEATEGSGLLLNSTGDLMKKNYLHNFCSQVPSVLGQSSPKVVASLPSISVPFGGARPKQPSNLKLQIPKPLSDHLQNDFPANSGNNTKNKNDILGKAKLGENSATNVCSPSLGNISNVDTNGEHLESYEAEISTRPCLALAPDSPDNDLRAGQFGISARKPFTTLGEVAPVWVPDSQAPNCMKCEARFTFTKRRHHCRACGKVFCASCCSLKCKLLYMDRKEARVCVICHSVLMNAQAWENMMSASSQSPNPNNPAEYCSTIPPLQQAQASGALSSPPPTVMVPVGVLKHPGAEVAQPREQRRVWFADGILPNGEVADAAKLTMNGTSSAGTLAVSHDPVKPVTTSPLPAETDICLFSGSITQVGSPVGSAMNLIPEDGLPPILISTGVKGDYAVEEKPSQISVMQQLEDGGPDPLVFVLNANLLSMVKIVNYVNRKCWCFTTKGMHAVGQSEIVILLQCLPDEKCLPKDIFNHFVQLYRDALAGNVVSNLGHSFFSQSFLGSKEHGGFLYVTSTYQSLQDLVLPTPPYLFGILIQKWETPWAKVFPIRLMLRLGAEYRLYPCPLFSVRFRKPLFGETGHTIMNLLADFRNYQYTLPVVQGLVVDMEVRKTSIKIPSNRYNEMMKAMNKSNEHVLAGGACFNEKADSHLVCVQNDDGNYQTQAISIHNQPRKVTGASFFVFSGALKSSSGYLAKSSIVEDGVMVQITAENMDSLRQALREMKDFTITCGKADAEEPQEHIHIQWVDDDKNVSKGVVSPIDGKSMETITNVKIFHGSEYKANGKVIRWTEVFFLENDDQHNCLSDPADHSRLTEHVAKAFCLALCPHLKLLKEDGMTKLGLRVTLDSDQVGYQAGSNGQPLPSQYMNDLDSALVPVIHGGACQLSEGPVVMELIFYILENIV

Legend:
HA-Beclin1 = HA-Beclin1 (UniProt Q14457); assay: co-IP; expression vectors co-transfected into HEK293 cells, lysed after 48 h in IP buffer (20 mM Tris-HCl pH 7.5, 100 mM NaCl, 1% NP40, 1 mM PMSF, 1% glycerol); FLAG (M2) or HA antibody beads overnight at 4 °C; blot
V5-VPS15 = V5-VPS15 (UniProt Q99570); assay: as above
GFP-VPS34 = GFP-VPS34 (UniProt Q8NEB9); assay: as above
[1] = biological target: WDR81 (as in the co-IP with SARA, Fig. S13d) (UniProt Q562E7); assay: co-IP; co-IP of SARA and WDR81 (Fig. S13d); cells and constructs not given

Row | Molecule | binding (HA-Beclin1) | binding (V5-VPS15) | binding (GFP-VPS34) | binding [1]
1 | FLAG-WDR81 (from UniProt Q562E7 1-1941) | binds | binds | no binding | –
2 | B1 | – | – | – | no binding
